Laboratory results as given in publication doi:10.1101/2024.12.06.627168.
For at least one entry, the source does not settle the construct or the ends of the probe. For some assays here: At least one verdict was read from the data and is not stated in words by the source.

Columns and labels:
MYC 1-163 = test: fluorescence anisotropy; conditions: residues 1-163
[1] = test system: MYC 25-mer peptides around MYCBox IV (RBRIII); test: peptide microarray; conditions: strongest of the four regions
[2] = test system: MYC 25-mer peptides around MYCBox I; test: peptide microarray
[3] = test system: MYC 25-mer peptides close to MYCBox II; test: peptide microarray
[4] = test system: MYC 25-mer peptides of the basic region (BR); test: peptide microarray

Sequence	binding result (MYC 1-163)	binding result [1]	binding result [2]	binding result [3]	binding result [4]
GUGCAUGGGCAUGUGUGCUGUGUGUGUGCAGGCGACCGUAAACA [PTDSS2 RNA oligo]	binds	–	–	–	–
UGGGCCUGGAAUAGUGGGGGCCCAGGGGAAGCUGCGAUGUGCUUCUGAGUGUUUGGAACGAG [Cy5 RNA for peptide array]	–	binds	binds	binds	binds
